This note sets out measurements from PMC6907756.

For this assay, the target named is T1, FLAG-tagged N-terminal half of Δ5 mA3 (Δ5Nh) (mouse) (UniProt Q99J72).
T1 sequence: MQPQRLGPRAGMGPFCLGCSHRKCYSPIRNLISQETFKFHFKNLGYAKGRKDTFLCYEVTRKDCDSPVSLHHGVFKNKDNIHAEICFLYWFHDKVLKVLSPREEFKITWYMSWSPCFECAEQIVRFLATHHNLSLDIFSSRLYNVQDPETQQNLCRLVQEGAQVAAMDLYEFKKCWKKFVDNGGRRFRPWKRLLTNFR
Put plainly: co-IP; IVT reaction co-expressing Pr180gag-pol and FLAG-tagged mA3 forms (20 h, 30°C), 1 ul diluted in 1000 ul IP buffer (50 mM Tris pH 7.6, 150 mM NaCl, 1% IGEPAL CA-630, 2 mM EDTA); anti-FLAG mAb agarose, 2 h at 4°C; immunoblot with anti-MuLV protease Ab. On the technique in general: A western blot detects proteins with antibodies after separation by electrophoresis.

Results are given in words; binding and its absence hold for the method and conditions named. Binding seen in cells or lysates may run through a third protein. Binding calls can cover weak binding; strength is not graded here. Where a sequence is shown, tags or fusion partners need not be part of it.

As for “Pr180gag-pol precursor polyprotein of F-MuLV strain 57 (Friend murine leukemia virus strain 57)”, the binding result is “binds”.
